Source: PubChem BioAssay AID504786 (Drosophila RNAi Screening Center, 2011)
Screen: 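Fly genes required for HIF-dependent transcription when hypoxia is mimicked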 (primary screen). System: Drosophila S2 cells with a stable HIF luciferase reporter. Reagents: long dsRNA against Drosophila genes, about 0.2 µg dsRNA per well of a 384-well plate. Duration: three days of knock-down, then 20 h of DFO before reading. Treatment: desferrioxamine (DFO) at 100 µM, an iron chelator that mimics hypoxia, for 20 h. Detection: 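HIF reporter luminescence in cells given 100 µM DFO for 20 h, using the mouse ldh-a hypoxia-response element, scored as per-plate z-scores; higher means greater loss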. Scale: z-score: higher = stronger loss of HIF reporter signal.
The screen tested about 21,000 reagents; this is a random part of those that have a named target and a result. 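Primary screen; positive scores mean lost reporter signal, so the sign may be inverted from the usual convention.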 The numbers tell different reagents against one gene apart.

Gene	reagent	z-score, replicate 1	z-score, replicate 2	z-score, replicate 3	z-score, replicate 4
Sbds (SBDS ribosome maturation factor)	1	-0.3	0.1		
orb2	1	-0.1	-0.1		
orb2	2	-0.3	0		
orb2	3	-0.1	-0.3		
Syx5 (Syntaxin 5)	1	-0.5	1.7		
CG32683	1	-0.1	0.3		
CG32683	2	-0.2	0.4		
CG32683	3	0	0.4		
CG6867	1	-0.4	-0.3		
PheRS-m (Phenylalanyl-tRNA synthetase, mitochondrial)	1	-0.3	-0.2		
GstE5 (Glutathione S transferase E5)	1	-0.3	-0.5		
CG3085	1	-0.2	-0.9		
CG1840	1	-0.4	-0.8		
CG8607	1	-0.3	0.1		
SIFaR (SIFamide receptor)	1	-0.5	-0.3		
SIFaR (SIFamide receptor)	2	0.5	0		
flz (filzig)	1	-0.4	-0.6		
CG31097	1	-0.4	-0.8		
CG8850	1	-0.2	-0.1		
qkr58E-2 (quaking related 58E-2)	1	0.9	0.7		
CR42532 (pseudo)	1	-0.3	-0.3		
CG15890	1	-0.1	0		
CG3698	1	-0.3	-0.5		
CG14230	1	0.3	1.3		
CG13192	1	-0.4	-0.4		
Lamtor4 (Late endosomal/lysosomal adaptor, MAPK and MTOR activator 4)	1	0.5	0.5		
CG1773	1	-0.4	-0.4		
CG30151	1	0.3	0		
alpha-Est1 (alpha-Esterase-1)	1	-0.3	-0.3		
CG34200	1	0	-0.1		
Dyb (Dystrobrevin)	1	-0.3	-0.9	-0.2	-0.1
CG8460	1	-0.3	-0.6		
betaTry (betaTrypsin)	1	-0.4	-0.3	-0.3	0.1
CG33552	1	0.1	0.8		
CG10793	1	-0.2	-0.4		
l(3)87Df (lethal (3) 87Df)	1	0.1	-0.5		
CG8180	1	-0.1	-0.4		
CG8180	2	1.2	1.8		
ND-MNLL (NADH dehydrogenase (ubiquinone) MNLL subunit)	1	0.1	-0.3		
Fer3HCH (Ferritin 3 heavy chain homologue)	1	-0.3	-1.1		
ATP8B (ATPase 8B)	1	-0.4	-0.3		
CG10353	1	0	0.4		
flr (flare)	1	-0.1	0.4		
Pus1 (Pseudouridine synthase 1)	1	0.1	-0.3		
Cyp4d20 (Cytochrome P450 4d20)	1	-0.3	0.1		
Lip4 (Lipase 4)	1	-0.2	0.2		
Prosbeta4R1 (Proteasome beta4 subunit-related 1)	1	-0.2	0		
Vps29 (Vacuolar protein sorting 29)	1	-0.3	-0.3		
lok (loki)	1	-0.2	-0.1		
BaraC (Baramicin C)	1	-0.1	0.6		
CG4830	1	3.1	2		
TwdlH (TweedleH)	1	0	1.1		
Osi18 (Osiris 18)	1	-0.1	0.5		
GstE4 (Glutathione S transferase E4)	1	-0.3	-0.6		
sunz (sungrazer)	1	-0.2	-0.1		
dan (distal antenna)	1	0.1	0.7		
CG13314	1	-0.1	0		
CG6138	1	-0.2	0.5		
CG2921	1	-0.3	-0.1		
CG14007	1	-0.2	-0.3		
CG34029	1	0.3	-0.5		
Try29F (Trypsin 29F)	1	-0.3	-0.4		
Tsp86D (Tetraspanin 86D)	1	-0.3	-0.2		
AstA (Allatostatin A)	1	-0.5	-0.7		
Lgr3 (Leucine-rich repeat-containing G protein-coupled receptor 3)	1	-0.2	-0.1		
Lgr3 (Leucine-rich repeat-containing G protein-coupled receptor 3)	2	0.5	1.2		
Sk2 (Sphingosine kinase 2)	1	0	0		
enok (enoki mushroom)	1	1.3	1.4		
CG11808	1	-0.2	0.1		
CG2100	1	-0.3	-0.2		
ct (cut)	1	2.1	2.8		
CG2839	1	-0.4	-0.6		
mthl12 (methuselah-like 12)	1	-0.1	0.1		
CG15368	1	-0.3	0.7		
CG13747	1	-0.3	-0.3		
Zir (Zizimin-related)	1	-0.2	-0.4		
by (blistery)	1	-0.4	-0.7		
CG15014	1	-0.2	-0.2		
CG33159	1	0.1	-0.5		
wcy (wacky)	1	0.2	0.8		
CG14642	1	-0.3	-0.4		
PIP5K59B (Phosphatidylinositol 4-phosphate 5-kinase 59B)	1	-0.2	-0.6		
PIP5K59B (Phosphatidylinositol 4-phosphate 5-kinase 59B)	2	-0.2	-0.2		
